Data from PubChem BioAssay AID330 (DTP/NCI, 2004).
The list does not hold the whole screen: it is rich in T/C values a quarter to a half above the control, in often repeated tests (any T/C) and in doses without a T/C. Other doses and runs of a compound stand elsewhere. T/C gives the treated animals as a percentage of the vehicle group. Some entries give survivors of the animals treated and no T/C: the source holds a T/C of zero for them, seemingly a mark for toxic or unscored doses. Some doses without a T/C left all or most animals alive at the check, yet need not have been tolerated: survival well below the control is almost never listed, so the zero probably covers shortened survival too. Survivors were counted at the toxicity check, usually on the fifth day, unless a day is given; later deaths do not show. Schedules are NCI's codes, read here as Q, the interval in days (D) or hours (H), X, the number of doses. Some schedules carry Z or #; the key to these is not given. Some entries were tested several times; the values are given in rising order. For survival time, this PubChem deposit counts one and a half times the control or more as active, and values a quarter to a half above the control carry no call in these data; other NCI protocols may use other cut-offs. Some T/C values are followed by the survivors on the day toxicity was checked, most often the fifth; without a count, all were alive then.

Test system: P388 leukemia ip, CD2F1 mice, survival T/C
Assay: NCI In Vivo Anticancer Drug Screen. Data for tumor model P388 Leukemia (intraperitoneal) in CD2F1 (CDF1) mice
Conditions: T/C endpoint: median survival time, higher T/C = longer survival
[1] = dose: 10.0 mg/kg/injection, schedule: Q## X009 (ip), vehicle: lactic acid

## c1ccc2c(NCCCCCCNc3c4ccccc4nc4ccccc34)c3ccccc3nc2c1
dose: 0.62 mg/kg/injection, schedule: Q## X009 (ip), vehicle: lactic acid
  T/C: 127 % of control
dose: 0.63 mg/kg/injection, schedule: Q01DX009 (ip), vehicle: other
  T/C: 128 % of control
dose: 1.25 mg/kg/injection, schedule: Q01DX009 (ip), vehicle: other
  T/C: 133 % of control
dose: 1.25 mg/kg/injection, schedule: Q01DX009 (ip), vehicle: water
  T/C: 126 % of control
dose: 1.25 mg/kg/injection, schedule: Q## X009 (ip), vehicle: lactic acid
  T/C: 137 and 143 % of control
dose: 1.56 mg/kg/injection, schedule: Q01DX009 (ip), vehicle: Klucel (hydroxypropylcellulose) (HPC)
  T/C: 140 % of control
dose: 1.56 mg/kg/injection, schedule: Q01DX009 (ip), vehicle: lactic acid
  T/C: 137 % of control
dose: 1.94 mg/kg/injection, schedule: Q01DX009 (ip), vehicle: other
  T/C: 136 % of control
dose: 2.5 mg/kg/injection, schedule: Q01DX009 (ip), vehicle: Klucel (hydroxypropylcellulose) (HPC)
  T/C: 134 and 135 % of control
dose: 2.5 mg/kg/injection, schedule: Q01DX009 (ip), vehicle: other
  T/C: 138 % of control
dose: 2.5 mg/kg/injection, schedule: Q01DX009 (ip), vehicle: water
  T/C: 138 and 141 % of control
dose: 2.5 mg/kg/injection, schedule: Q## X009 (ip), vehicle: Klucel (hydroxypropylcellulose) (HPC)
  T/C: 134 % of control
dose: 2.5 mg/kg/injection, schedule: Q## X009 (ip), vehicle: lactic acid
  T/C: 147 % of control
dose: 2.59 mg/kg/injection, schedule: Q01DX009 (ip), vehicle: Klucel (hydroxypropylcellulose) (HPC)
  T/C: 138 % of control
dose: 2.59 mg/kg/injection, schedule: Q04DX003 (ip), vehicle: other
  T/C: 139 % of control
dose: 3.24 mg/kg/injection, schedule: Q01DX009 (ip), vehicle: other
  T/C: 144 % of control
dose: 3.75 mg/kg/injection, schedule: Q01DX009 (ip), vehicle: other
  T/C: 134 % of control
dose: 4.32 mg/kg/injection, schedule: Q01DX009 (ip), vehicle: Klucel (hydroxypropylcellulose) (HPC)
  T/C: 147 % of control
dose: 4.32 mg/kg/injection, schedule: Q04DX003 (ip), vehicle: other
  T/C: 137 % of control
dose: 5.0 mg/kg/injection, schedule: Q01DX009 (ip), vehicle: Klucel (hydroxypropylcellulose) (HPC)
  T/C: 135 [7 of 8 alive] and 139 % of control
dose: 5.0 mg/kg/injection, schedule: Q01DX009 (ip), vehicle: other
  T/C: 149 % of control
dose: 5.0 mg/kg/injection, schedule: Q01DX009 (ip), vehicle: water
  T/C: 132 and 135 % of control
dose: 5.0 mg/kg/injection, schedule: Q## X009 (ip), vehicle: Klucel (hydroxypropylcellulose) (HPC)
  T/C: 139 % of control
dose: 5.0 mg/kg/injection, schedule: Q## X009 (ip), vehicle: lactic acid
  T/C: 135 and 144 % of control
dose: 6.0 mg/kg/injection, schedule: Q01DX009 (ip), vehicle: lactic acid
  survivor count: 5 of 8
dose: 7.5 mg/kg/injection, schedule: Q01DX009 (ip), vehicle: other
  T/C: 142 % of control
dose: 10.0 mg/kg/injection, schedule: Q01DX009 (ip), vehicle: Klucel (hydroxypropylcellulose) (HPC)
  T/C: 126 [7 of 8 alive] and 145 % of control
dose: 10.0 mg/kg/injection, schedule: Q01DX009 (ip), vehicle: lactic acid
  survivor count: 2 of 8
dose: 10.0 mg/kg/injection, schedule: Q01DX009 (ip), vehicle: water
  survivor count: 2 of 6
dose: 10.0 mg/kg/injection, schedule: Q## X009 (ip), vehicle: Klucel (hydroxypropylcellulose) (HPC)
  T/C: 143 % of control
[1]
  T/C: 129 % of control
  survivor count: 3 of 6
dose: 12.0 mg/kg/injection, schedule: Q01DX009 (ip), vehicle: lactic acid
  survivor count: 5 of 8
dose: 15.0 mg/kg/injection, schedule: Q01DX009 (ip), vehicle: other
  survivor count: 4 of 6
dose: 16.7 mg/kg/injection, schedule: Q01DX009 (ip), vehicle: Klucel (hydroxypropylcellulose) (HPC)
  survivor count: 5 of 8
dose: 16.7 mg/kg/injection, schedule: Q01DX009 (ip), vehicle: lactic acid
  survivor count: 1 of 8
dose: 20.0 mg/kg/injection, schedule: Q01DX009 (ip), vehicle: Klucel (hydroxypropylcellulose) (HPC)
  survivor count: 0 of 6, 5 of 8, 8 of 8
dose: 20.0 mg/kg/injection, schedule: Q01DX009 (ip), vehicle: lactic acid
  survivor count: 0 of 8
dose: 20.0 mg/kg/injection, schedule: Q01DX009 (ip), vehicle: other
  survivor count: 4 of 6
dose: 20.0 mg/kg/injection, schedule: Q01DX009 (ip), vehicle: water
  T/C: 132 % of control [5 of 6 alive]
dose: 20.0 mg/kg/injection, schedule: Q04DX003 (ip), vehicle: other
  survivor count: 4 of 8
dose: 20.0 mg/kg/injection, schedule: Q## X009 (ip), vehicle: Klucel (hydroxypropylcellulose) (HPC)
  survivor count: 0 of 6
dose: 20.0 mg/kg/injection, schedule: Q## X009 (ip), vehicle: lactic acid
  survivor count: 0 of 4
dose: 21.6 mg/kg/injection, schedule: Q01DX003 (ip), vehicle: water
  survivor count: 1 of 8
dose: 33.3 mg/kg/injection, schedule: Q01DX009 (ip), vehicle: Klucel (hydroxypropylcellulose) (HPC)
  survivor count: 0 of 8
dose: 33.3 mg/kg/injection, schedule: Q01DX009 (ip), vehicle: lactic acid
  survivor count: 0 of 8
dose: 36.0 mg/kg/injection, schedule: Q01DX003 (ip), vehicle: water
  survivor count: 0 of 8
dose: 40.0 mg/kg/injection, schedule: Q01DX009 (ip), vehicle: Klucel (hydroxypropylcellulose) (HPC)
  survivor count: 0 of 6
dose: 40.0 mg/kg/injection, schedule: Q## X009 (ip), vehicle: Klucel (hydroxypropylcellulose) (HPC)
  survivor count: 0 of 6
dose: 60.0 mg/kg/injection, schedule: Q01DX003 (ip), vehicle: water
  survivor count: 0 of 8

## N#CC1=C2CCCCC2(O)NC1=O (centres undefined)
dose: 25.0 mg/kg/injection, schedule: Q01DX005 (ip), vehicle: Klucel (hydroxypropylcellulose) (HPC)
  survivor count: 2 of 5
dose: 50.0 mg/kg/injection, schedule: Q01DX005 (ip), vehicle: Klucel (hydroxypropylcellulose) (HPC)
  survivor count: 2 of 5
dose: 100.0 mg/kg/injection, schedule: Q01DX005 (ip), vehicle: Klucel (hydroxypropylcellulose) (HPC)
  survivor count: 0 of 5
dose: 200.0 mg/kg/injection, schedule: Q01DX005 (ip), vehicle: Klucel (hydroxypropylcellulose) (HPC)
  survivor count: 0 of 5

## O=c1[nH]c2c(ccc3cnccc32)c2c1CCC2
dose: 12.5 mg/kg/injection, schedule: Q01DX009 (ip), vehicle: saline
  T/C: 125 % of control
dose: 25.0 mg/kg/injection, schedule: Q01DX009 (ip), vehicle: saline
  T/C: 126 and 136 % of control
dose: 50.0 mg/kg/injection, schedule: Q01DX009 (ip), vehicle: saline
  T/C: 140 % of control
dose: 60.0 mg/kg/injection, schedule: Q01DX009 (ip), vehicle: saline
  survivor count: 6 of 6
dose: 120.0 mg/kg/injection, schedule: Q01DX009 (ip), vehicle: saline
  survivor count: 3 of 6
dose: 240.0 mg/kg/injection, schedule: Q01DX009 (ip), vehicle: saline
  survivor count: 1 of 6

## C=C1C(=O)C23[C@H](O)C1CC[C@H]2[C@]12COC3(O)[C@@H](O)[C@@H]1C(C)(C)CC[C@@H]2O
dose: 4.5 mg/kg/injection, schedule: Q01DX009 (ip), vehicle: saline with Tween-80
  survivor count: 3 of 6
dose: 12.0 mg/kg/injection, schedule: Q01DX009 (ip), vehicle: saline with Tween-80
  T/C: 127 % of control
dose: 18.0 mg/kg/injection, schedule: Q01DX009 (ip), vehicle: saline with Tween-80
  T/C: 128 and 131 % of control
dose: 25.0 mg/kg/injection, schedule: Q01DX009 (ip), vehicle: saline with Tween-80
  T/C: 125 % of control
dose: 36.0 mg/kg/injection, schedule: Q01DX009 (ip), vehicle: saline with Tween-80
  survivor count: 0 of 6
dose: 50.0 mg/kg/injection, schedule: Q01DX009 (ip), vehicle: saline with Tween-80
  survivor count: 0 of 3
dose: 100.0 mg/kg/injection, schedule: Q01DX009 (ip), vehicle: saline with Tween-80
  survivor count: 0 of 3

## O=[N+]([O-])c1ccc(N/N=C\C2OC3O[C@@H](C(Cl)(Cl)Cl)OC3C2O)c([N+](=O)[O-])c1 (some centres undefined)
dose: 100.0 mg/kg/injection, schedule: Q04DX002 (ip), vehicle: saline with Tween-80
  survivor count: 6 of 6
dose: 400.0 mg/kg/injection, schedule: Q04DX002 (ip), vehicle: saline with Tween-80
  survivor count: 6 of 6
